Assay results as given in patent US7947715B2, “Isoxazoline compound and pesticide” (Nissan Chemical Industries, Ltd., priority 2006, dated 2011).
Some of these results come from one statement about several compounds together. For at least one compound, name, drawing or mass did not settle the structure.

Test system: cabbage moth (Plutella xylostella)
Test: Insecticidal test against cabbage moth (leaf dip)
Type: in vivo
Settings: second instar larva, after 6 days

CN(C)NC(=O)NCc1ccc(C2=NOC(c3cc(Cl)cc(Cl)c3)(C(F)(F)F)C2)cc1Cl (stereo not shown) [4-104]
insecticidal rate (rate of dead insects) (10 ppm (**)): ≥ 80%

CN(C)NC(=O)NCc1ccc(C2=NOC(c3cc(Cl)c(Cl)c(Cl)c3)(C(F)(F)F)C2)cc1Cl (stereo not shown) [4-105]
insecticidal rate (rate of dead insects) (10 ppm (**)): ≥ 80%

CC(NC(=O)NN(C)C)c1ccc(C2=NOC(c3cc(Cl)c(Cl)c(Cl)c3)(C(F)(F)F)C2)cc1 (stereo not shown) [4-106]
insecticidal rate (rate of dead insects) (10 ppm (**)): ≥ 80%

CC(C)(C)NNC(=O)NCc1ccc(C2=NOC(c3cc(Cl)c(Cl)c(Cl)c3)(C(F)(F)F)C2)cc1Cl (stereo not shown) [4-107]
insecticidal rate (rate of dead insects) (100 ppm (*)): ≥ 80%

COC(=O)NNC(=O)NCc1ccc(C2=NOC(c3cc(C(F)(F)F)cc(C(F)(F)F)c3)(C(F)(F)F)C2)cc1Cl (stereo not shown) [4-113]
insecticidal rate (rate of dead insects) (10 ppm (**)): ≥ 80%

COC(=O)NNC(=O)NCc1ccc(C2=NOC(c3cc(Cl)c(Cl)c(Cl)c3)(C(F)(F)F)C2)cc1Cl (stereo not shown) [4-114]
insecticidal rate (rate of dead insects) (10 ppm (**)): ≥ 80%

CCOC(=O)NNC(=O)NCc1ccc(C2=NOC(c3cc(Cl)c(Cl)c(Cl)c3)(C(F)(F)F)C2)cc1Cl (stereo not shown) [4-115]
insecticidal rate (rate of dead insects) (10 ppm (**)): ≥ 80%

CCNC(=O)NCc1ccc(C2=NOC(c3cc(C(F)(F)F)cc(C(F)(F)F)c3)(C(F)(F)F)C2)cc1Cl (stereo not shown) [4-120]
insecticidal rate (rate of dead insects) (10 ppm (**)): ≥ 80%

CCNC(=O)NCc1ccc(C2=NOC(c3cc(C(F)(F)F)cc(C(F)(F)F)c3)(C(F)(F)F)C2)cc1Br (stereo not shown) [4-121]
insecticidal rate (rate of dead insects) (10 ppm (**)): ≥ 80%

CCNC(=O)NC(C)c1ccc(C2=NOC(c3cc(C(F)(F)F)cc(C(F)(F)F)c3)(C(F)(F)F)C2)cc1 (stereo not shown) [4-122]
insecticidal rate (rate of dead insects) (10 ppm (**)): ≥ 80%

O=C(NCc1ccc(C2=NOC(c3cc(C(F)(F)F)cc(C(F)(F)F)c3)(C(F)(F)F)C2)cc1Br)NC1CC1 (stereo not shown) [4-124]
insecticidal rate (rate of dead insects) (100 ppm (*)): ≥ 80%

O=C(NCc1ccc(C2=NOC(c3cc(C(F)(F)F)cc(C(F)(F)F)c3)(C(F)(F)F)C2)cc1I)NC1CC1 (stereo not shown) [4-125]
insecticidal rate (rate of dead insects) (10 ppm (**)): ≥ 80%

C#CCNC(=O)NCc1ccc(C2=NOC(c3cc(C(F)(F)F)cc(C(F)(F)F)c3)(C(F)(F)F)C2)cc1Cl (stereo not shown) [4-127]
insecticidal rate (rate of dead insects) (10 ppm (**)): ≥ 80%

C#CCNC(=O)NCc1ccc(C2=NOC(c3cc(C(F)(F)F)cc(C(F)(F)F)c3)(C(F)(F)F)C2)cc1Br (stereo not shown) [4-128]
insecticidal rate (rate of dead insects) (10 ppm (**)): ≥ 80%

C#CCNC(=O)NC(C)c1ccc(C2=NOC(c3cc(C(F)(F)F)cc(C(F)(F)F)c3)(C(F)(F)F)C2)cc1 (stereo not shown) [4-129]
insecticidal rate (rate of dead insects) (10 ppm (**)): ≥ 80%

CCNC(=O)NCc1ccc(C2=NOC(c3cc(C(F)(F)F)cc(C(F)(F)F)c3)(C(F)(F)F)C2)cc1F (stereo not shown) [4-130]
insecticidal rate (rate of dead insects) (100 ppm (*)): ≥ 80%

CCNC(=O)NCc1ccc(C2=NOC(c3cc(Cl)c(Cl)c(C(F)(F)F)c3)(C(F)(F)F)C2)cc1Cl (stereo not shown) [4-134]
insecticidal rate (rate of dead insects) (10 ppm (**)): ≥ 80%

CCNC(=O)NCc1ccc(C2=NOC(c3cc(Cl)c(Cl)c(C(F)(F)F)c3)(C(F)(F)F)C2)cc1Br (stereo not shown) [4-136]
insecticidal rate (rate of dead insects) (100 ppm (*)): ≥ 80%

CCNC(=O)NCc1ccc(C2=NOC(c3cc(C(F)(F)F)cc(C(F)(F)F)c3)(C(F)(F)F)C2)cc1I (stereo not shown) [4-137]
insecticidal rate (rate of dead insects) (100 ppm (*)): ≥ 80%

CCNC(=O)NC(C#N)c1ccc(C2=NOC(c3cc(C(F)(F)F)cc(C(F)(F)F)c3)(C(F)(F)F)C2)cc1 (stereo not shown) [4-140]
insecticidal rate (rate of dead insects) (10 ppm (**)): ≥ 80%

C[C@H](NC(=O)NC1CC1)c1ccc(C2=NOC(c3cc(C(F)(F)F)cc(C(F)(F)F)c3)(C(F)(F)F)C2)cc1 (stereo partly shown) [4-141]
insecticidal rate (rate of dead insects) (10 ppm (**)): ≥ 80%

CC(NC(=O)NC1CC1)c1ccc(C2=NOC(c3cc(Cl)c(Cl)c(C(F)(F)F)c3)(C(F)(F)F)C2)cc1 (stereo not shown) [4-142]
insecticidal rate (rate of dead insects) (10 ppm (**)): ≥ 80%

C#CCNC(=O)NCc1ccc(C2=NOC(c3cc(C(F)(F)F)cc(C(F)(F)F)c3)(C(F)(F)F)C2)cc1I (stereo not shown) [4-143]
insecticidal rate (rate of dead insects) (100 ppm (*)): ≥ 80%

CON=CNC(=O)NCc1ccc(C2=NOC(c3cc(Cl)cc(Cl)c3)(C(F)(F)F)C2)cc1Cl (stereo not shown) [4-144]
insecticidal rate (rate of dead insects) (100 ppm (*)): ≥ 80%

CN(C)C=NC(=O)NCc1ccc(C2=NOC(c3cc(Cl)cc(Cl)c3)(C(F)(F)F)C2)cc1Cl (stereo not shown) [4-145]
insecticidal rate (rate of dead insects) (100 ppm (*)): ≥ 80%

CN(C(=O)NCc1ccc(C2=NOC(c3cc(C(F)(F)F)cc(C(F)(F)F)c3)(C(F)(F)F)C2)cc1Br)S(C)(=O)=O (stereo not shown) [4-146]
insecticidal rate (rate of dead insects) (100 ppm (*)): ≥ 80%

CC1CCS(=O)(=O)N1C(=O)NCc1ccc(C2=NOC(c3cc(C(F)(F)F)cc(C(F)(F)F)c3)(C(F)(F)F)C2)cc1Br (stereo not shown) [4-147]
insecticidal rate (rate of dead insects) (100 ppm (*)): ≥ 80%

O=C(NCc1ccc(C2=NOC(c3cc(Cl)c(Cl)c(Cl)c3)(C(F)(F)F)C2)cn1)C1CC1 (stereo not shown) [5-002]
insecticidal rate (rate of dead insects) (100 ppm (*)): ≥ 80%

O=C(NCc1ccc(C2=NOC(c3cc(Cl)c(Cl)c(Cl)c3)(C(F)(F)F)C2)c[n+]1[O-])C1CC1 (stereo not shown) [5-003]
insecticidal rate (rate of dead insects) (100 ppm (*)): ≥ 80%

CC(NC(=O)C1CC1)c1ccc(C2=NOC(c3cc(Cl)cc(Cl)c3)(C(F)(F)F)C2)cn1 (stereo not shown) [5-004]
insecticidal rate (rate of dead insects) (10 ppm (**)): ≥ 80%

CC(NC(=O)CC(F)(F)F)c1ccc(C2=NOC(c3cc(Cl)cc(Cl)c3)(C(F)(F)F)C2)cn1 (stereo not shown) [5-005]
insecticidal rate (rate of dead insects) (100 ppm (*)): ≥ 80%

CSCC(=O)NC(C)c1ccc(C2=NOC(c3cc(Cl)cc(Cl)c3)(C(F)(F)F)C2)cn1 (stereo not shown) [5-006]
insecticidal rate (rate of dead insects) (500 ppm): ≥ 80%

O=C(NCc1ccc(C2=NOC(c3cc(Cl)c(Cl)c(Cl)c3)(C(F)(F)F)C2)cn1)c1c(F)cc(F)cc1F (stereo not shown) [5-007]
insecticidal rate (rate of dead insects) (10 ppm (**)): ≥ 80%

CC(NC(=O)c1c(F)cc(F)cc1F)c1ccc(C2=NOC(c3cc(Cl)cc(Cl)c3)(C(F)(F)F)C2)cn1 (stereo not shown) [5-008]
insecticidal rate (rate of dead insects) (10 ppm (**)): ≥ 80%

CC(NC(=O)C1CC1)c1ccc(C2=NOC(c3cc(Cl)c(Cl)c(Cl)c3)(C(F)(F)F)C2)nc1 (stereo not shown) [5-009]
insecticidal rate (rate of dead insects) (10 ppm (**)): ≥ 80%

CC(NC(=O)c1c(F)cc(F)cc1F)c1ccc(C2=NOC(c3cc(Cl)c(Cl)c(Cl)c3)(C(F)(F)F)C2)nc1 (stereo not shown) [5-010]
insecticidal rate (rate of dead insects) (10 ppm (**)): ≥ 80%

CC(NC(=O)NCC(F)(F)F)c1ccc(C2=NOC(c3cc(Cl)c(Cl)c(Cl)c3)(C(F)(F)F)C2)nc1 (stereo not shown) [5-011]
insecticidal rate (rate of dead insects) (100 ppm (*)): ≥ 80%

FC(F)(F)CC(=S)NCc1ccc(C2=NOC(c3cc(Cl)cc(Cl)c3)(C(F)(F)F)C2)cc1 (stereo not shown) [5-012]
insecticidal rate (rate of dead insects) (10 ppm (**)): ≥ 80%

FC(F)(F)COC(=S)NCc1ccc(C2=NOC(c3cc(Cl)cc(Cl)c3)(C(F)(F)F)C2)cc1Cl (stereo not shown) [5-013]
insecticidal rate (rate of dead insects) (100 ppm (*)): ≥ 80%

CSC(=S)NCc1ccc(C2=NOC(c3cc(Cl)cc(Cl)c3)(C(F)(F)F)C2)cc1Cl (stereo not shown) [5-014]
insecticidal rate (rate of dead insects) (100 ppm (*)): ≥ 80%

CNC(=S)NCc1ccc(C2=NOC(c3cc(Cl)c(Cl)c(Cl)c3)(C(F)(F)F)C2)cc1Cl (stereo not shown) [5-015]
insecticidal rate (rate of dead insects) (100 ppm (*)): ≥ 80%

FC(F)(F)C1(c2cc(Cl)c(Cl)c(Cl)c2)CC(c2ccc(CNC(=S)NC3CC3)c(Cl)c2)=NO1 (stereo not shown) [5-016]
insecticidal rate (rate of dead insects) (10 ppm (**)): ≥ 80%

CC(NC(=S)NC1CC1)c1ccc(C2=NOC(c3cc(Cl)c(Cl)c(Cl)c3)(C(F)(F)F)C2)cc1 (stereo not shown) [5-017]
insecticidal rate (rate of dead insects) (10 ppm (**)): ≥ 80%

CCC(C)NC(=S)NCc1ccc(C2=NOC(c3cc(Cl)c(Cl)c(Cl)c3)(C(F)(F)F)C2)cc1Cl (stereo not shown) [5-018]
insecticidal rate (rate of dead insects) (100 ppm (*)): ≥ 80%

FC(F)(F)C1(c2cc(Cl)c(Cl)c(Cl)c2)CC(c2ccc(CNC(=S)NCc3ccccc3)c(Cl)c2)=NO1 (stereo not shown) [5-019]
insecticidal rate (rate of dead insects) (10 ppm (**)): ≥ 80%

CCOC(=O)NC(=S)NCc1ccc(C2=NOC(c3cc(Cl)c(Cl)c(Cl)c3)(C(F)(F)F)C2)cc1Cl (stereo not shown) [5-020]
insecticidal rate (rate of dead insects) (500 ppm): ≥ 80%

CC(c1ccc(C2=NOC(c3cc(Cl)cc(Cl)c3)(C(F)(F)F)C2)cc1)N1C(=O)CCC1=O (stereo not shown) [7-002]
insecticidal rate (rate of dead insects) (500 ppm): ≥ 80%

CCN(Cc1ccc(C2=NOC(c3cc(Cl)cc(Cl)c3)(C(F)(F)F)C2)cc1Cl)C(=O)C1CC1 (stereo not shown) [7-003]
insecticidal rate (rate of dead insects) (10 ppm (**)): ≥ 80%

CON(Cc1ccc(C2=NOC(c3cc(Cl)cc(Cl)c3)(C(F)(F)F)C2)cc1Cl)C(=O)C1CC1 (stereo not shown) [7-004]
insecticidal rate (rate of dead insects) (500 ppm): ≥ 80%

CCON(Cc1ccc(C2=NOC(c3cc(Cl)cc(Cl)c3)(C(F)(F)F)C2)cc1Cl)C(=O)C1CC1 (stereo not shown) [7-005]
insecticidal rate (rate of dead insects) (100 ppm (*)): ≥ 80%

CC(=O)N(Cc1ccc(C2=NOC(c3cc(Cl)cc(Cl)c3)(C(F)(F)F)C2)cc1Cl)CC(F)(F)F (stereo not shown) [7-006]
insecticidal rate (rate of dead insects) (500 ppm): ≥ 80%

CCC(=O)N(Cc1ccc(C2=NOC(c3cc(Cl)cc(Cl)c3)(C(F)(F)F)C2)cc1Cl)CC(F)(F)F (stereo not shown) [7-007]
insecticidal rate (rate of dead insects) (100 ppm (*)): ≥ 80%

O=C(C1CC1)N(Cc1ccc(C2=NOC(c3cc(Cl)cc(Cl)c3)(C(F)(F)F)C2)cc1Cl)C1CC1 (stereo not shown) [7-008]
insecticidal rate (rate of dead insects) (500 ppm): ≥ 80%

O=C(C1CC1)N(Cc1ccc(C2=NOC(c3cc(Cl)cc(Cl)c3)(C(F)(F)F)C2)cc1Cl)CC1CC1 (stereo not shown) [7-009]
insecticidal rate (rate of dead insects) (10 ppm (**)): ≥ 80%

O=C(C1CC1)N(Cc1ccc(C2=NOC(c3cc(Cl)cc(Cl)c3)(C(F)(F)F)C2)cc1Cl)CC(F)(F)F (stereo not shown) [7-010]
insecticidal rate (rate of dead insects) (100 ppm (*)): ≥ 80%

COCCN(Cc1ccc(C2=NOC(c3cc(Cl)cc(Cl)c3)(C(F)(F)F)C2)cc1Cl)C(=O)C1CC1 (stereo not shown) [7-011]
insecticidal rate (rate of dead insects) (100 ppm (*)): ≥ 80%

CN(Cc1ccc(C2=NOC(c3cc(Cl)cc(Cl)c3)(C(F)(F)F)C2)cc1Cl)C(=O)C1CC1 (stereo not shown) [7-012]
insecticidal rate (rate of dead insects) (10 ppm (**)): ≥ 80%

COCN(Cc1ccc(C2=NOC(c3cc(Cl)cc(Cl)c3)(C(F)(F)F)C2)cc1Cl)C(=O)C1CC1 (stereo not shown) [7-013]
insecticidal rate (rate of dead insects) (100 ppm (*)): ≥ 80%

O=C(CN(Cc1ccc(C2=NOC(c3cc(Cl)cc(Cl)c3)(C(F)(F)F)C2)cc1Cl)C(=O)C1CC1)NCC(F)(F)F (stereo not shown) [7-015]
insecticidal rate (rate of dead insects) (10 ppm (**)): ≥ 80%

CN(Cc1ccc(C2=NOC(c3cc(Cl)cc(Cl)c3)(C(F)(F)F)C2)cc1Cl)C(=O)CC1CC1 (stereo not shown) [7-017]
insecticidal rate (rate of dead insects) (100 ppm (*)): ≥ 80%

COC(=O)N(CC(=O)NCC(F)(F)F)Cc1ccc(C2=NOC(c3cc(Cl)cc(Cl)c3)(C(F)(F)F)C2)cc1Cl (stereo not shown) [7-018]
insecticidal rate (rate of dead insects) (500 ppm): ≥ 80%

CCC(=O)N(C(=O)CC)C(C)c1ccc(C2=NOC(c3cc(Cl)c(Cl)c(Cl)c3)(C(F)(F)F)C2)cc1 (stereo not shown) [7-019]
insecticidal rate (rate of dead insects) (500 ppm): ≥ 80%

CCCC(=O)N(C)Cc1ccc(C2=NOC(c3cc(Cl)c(Cl)c(Cl)c3)(C(F)(F)F)C2)cc1Cl (stereo not shown) [7-020]
insecticidal rate (rate of dead insects) (500 ppm): ≥ 80%

CN(Cc1ccc(C2=NOC(c3cc(Cl)c(Cl)c(Cl)c3)(C(F)(F)F)C2)cc1Cl)C(=O)C1CC1 (stereo not shown) [7-021]
insecticidal rate (rate of dead insects) (500 ppm): ≥ 80%
